In the supplement of paper PMC10849652:
The list shows a part of the results.

Amino acid sequences for entries named in this document (tags omitted). A change or cut given only in a name is not applied to a line headed by its entry.
UniProt Q8TEL6: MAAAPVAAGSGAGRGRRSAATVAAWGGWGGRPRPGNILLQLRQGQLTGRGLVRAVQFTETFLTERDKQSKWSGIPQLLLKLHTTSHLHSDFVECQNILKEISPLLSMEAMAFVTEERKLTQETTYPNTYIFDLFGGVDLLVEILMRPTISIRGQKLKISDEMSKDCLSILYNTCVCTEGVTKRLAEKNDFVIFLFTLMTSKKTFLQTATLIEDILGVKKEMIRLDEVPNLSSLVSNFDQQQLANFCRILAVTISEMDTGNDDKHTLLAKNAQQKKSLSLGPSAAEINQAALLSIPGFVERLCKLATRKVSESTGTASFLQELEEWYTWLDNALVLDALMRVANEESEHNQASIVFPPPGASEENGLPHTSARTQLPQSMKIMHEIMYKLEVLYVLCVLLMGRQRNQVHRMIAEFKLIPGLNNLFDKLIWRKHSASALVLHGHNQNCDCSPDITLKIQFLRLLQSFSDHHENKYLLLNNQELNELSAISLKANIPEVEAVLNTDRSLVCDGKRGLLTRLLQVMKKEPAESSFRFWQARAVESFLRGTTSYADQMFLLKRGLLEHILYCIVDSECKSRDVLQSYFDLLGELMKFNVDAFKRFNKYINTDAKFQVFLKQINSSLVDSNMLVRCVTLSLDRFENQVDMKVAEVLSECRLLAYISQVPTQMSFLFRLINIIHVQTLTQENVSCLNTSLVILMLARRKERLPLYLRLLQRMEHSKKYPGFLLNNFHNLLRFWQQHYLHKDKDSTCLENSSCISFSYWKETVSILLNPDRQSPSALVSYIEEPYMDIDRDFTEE
UniProt Q9H3S4: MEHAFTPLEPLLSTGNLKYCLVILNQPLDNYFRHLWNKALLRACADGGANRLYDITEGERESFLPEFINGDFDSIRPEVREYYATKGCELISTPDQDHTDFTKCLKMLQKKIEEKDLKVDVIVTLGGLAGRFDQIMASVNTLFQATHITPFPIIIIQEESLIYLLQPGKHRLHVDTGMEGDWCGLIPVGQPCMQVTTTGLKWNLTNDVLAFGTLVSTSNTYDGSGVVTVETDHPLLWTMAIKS
UniProt Q6Q0C0: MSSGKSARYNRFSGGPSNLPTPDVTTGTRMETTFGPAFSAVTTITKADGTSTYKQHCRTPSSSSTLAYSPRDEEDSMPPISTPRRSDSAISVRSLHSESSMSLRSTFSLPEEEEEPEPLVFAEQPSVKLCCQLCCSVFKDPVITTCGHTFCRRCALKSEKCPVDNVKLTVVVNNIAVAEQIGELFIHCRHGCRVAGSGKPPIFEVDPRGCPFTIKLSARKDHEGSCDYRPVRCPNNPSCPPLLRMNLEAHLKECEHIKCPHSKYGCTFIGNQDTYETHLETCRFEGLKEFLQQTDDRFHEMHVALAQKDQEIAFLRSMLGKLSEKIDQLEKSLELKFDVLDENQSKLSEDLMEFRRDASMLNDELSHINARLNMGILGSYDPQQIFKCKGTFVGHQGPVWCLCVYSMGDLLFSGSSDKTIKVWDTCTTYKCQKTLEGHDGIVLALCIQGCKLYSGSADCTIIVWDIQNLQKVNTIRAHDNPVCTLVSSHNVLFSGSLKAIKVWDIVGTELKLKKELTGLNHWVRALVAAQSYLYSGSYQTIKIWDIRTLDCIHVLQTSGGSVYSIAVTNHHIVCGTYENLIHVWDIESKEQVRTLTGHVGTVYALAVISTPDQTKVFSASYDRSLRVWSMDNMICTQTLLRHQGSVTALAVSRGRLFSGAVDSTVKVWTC
UniProt O00635: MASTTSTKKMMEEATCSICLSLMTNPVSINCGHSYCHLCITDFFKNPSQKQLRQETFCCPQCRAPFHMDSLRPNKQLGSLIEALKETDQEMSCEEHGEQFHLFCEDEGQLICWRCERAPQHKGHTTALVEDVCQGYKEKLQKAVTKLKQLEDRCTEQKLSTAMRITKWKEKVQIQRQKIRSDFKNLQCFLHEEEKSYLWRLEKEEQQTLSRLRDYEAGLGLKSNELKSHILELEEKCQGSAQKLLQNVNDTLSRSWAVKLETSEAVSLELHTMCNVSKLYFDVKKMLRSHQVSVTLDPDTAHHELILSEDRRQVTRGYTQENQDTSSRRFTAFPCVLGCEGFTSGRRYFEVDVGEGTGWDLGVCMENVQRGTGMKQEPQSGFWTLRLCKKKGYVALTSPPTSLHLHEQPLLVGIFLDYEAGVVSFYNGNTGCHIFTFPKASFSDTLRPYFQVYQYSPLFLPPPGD
UniProt Q96FX7: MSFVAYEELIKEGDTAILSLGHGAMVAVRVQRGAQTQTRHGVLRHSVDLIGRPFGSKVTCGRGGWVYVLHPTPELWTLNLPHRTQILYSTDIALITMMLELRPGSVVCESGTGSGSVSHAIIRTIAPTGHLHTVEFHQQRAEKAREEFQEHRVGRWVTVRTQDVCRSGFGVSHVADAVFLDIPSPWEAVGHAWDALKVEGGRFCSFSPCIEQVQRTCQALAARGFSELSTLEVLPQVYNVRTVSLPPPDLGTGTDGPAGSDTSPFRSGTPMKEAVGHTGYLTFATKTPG
UniProt Q15035: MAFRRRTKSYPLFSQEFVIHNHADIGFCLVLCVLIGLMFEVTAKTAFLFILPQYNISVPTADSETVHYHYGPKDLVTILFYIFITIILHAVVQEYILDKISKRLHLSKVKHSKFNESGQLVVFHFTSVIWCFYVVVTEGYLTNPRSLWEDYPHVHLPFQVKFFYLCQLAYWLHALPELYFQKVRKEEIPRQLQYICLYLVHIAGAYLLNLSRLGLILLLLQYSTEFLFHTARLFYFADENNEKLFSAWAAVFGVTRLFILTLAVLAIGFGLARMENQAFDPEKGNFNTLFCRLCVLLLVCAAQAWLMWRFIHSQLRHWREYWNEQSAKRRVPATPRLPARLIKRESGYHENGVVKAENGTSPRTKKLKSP
UniProt Q629K1: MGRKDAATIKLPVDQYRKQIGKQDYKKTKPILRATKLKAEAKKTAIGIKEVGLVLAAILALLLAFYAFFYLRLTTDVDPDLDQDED
UniProt P49815: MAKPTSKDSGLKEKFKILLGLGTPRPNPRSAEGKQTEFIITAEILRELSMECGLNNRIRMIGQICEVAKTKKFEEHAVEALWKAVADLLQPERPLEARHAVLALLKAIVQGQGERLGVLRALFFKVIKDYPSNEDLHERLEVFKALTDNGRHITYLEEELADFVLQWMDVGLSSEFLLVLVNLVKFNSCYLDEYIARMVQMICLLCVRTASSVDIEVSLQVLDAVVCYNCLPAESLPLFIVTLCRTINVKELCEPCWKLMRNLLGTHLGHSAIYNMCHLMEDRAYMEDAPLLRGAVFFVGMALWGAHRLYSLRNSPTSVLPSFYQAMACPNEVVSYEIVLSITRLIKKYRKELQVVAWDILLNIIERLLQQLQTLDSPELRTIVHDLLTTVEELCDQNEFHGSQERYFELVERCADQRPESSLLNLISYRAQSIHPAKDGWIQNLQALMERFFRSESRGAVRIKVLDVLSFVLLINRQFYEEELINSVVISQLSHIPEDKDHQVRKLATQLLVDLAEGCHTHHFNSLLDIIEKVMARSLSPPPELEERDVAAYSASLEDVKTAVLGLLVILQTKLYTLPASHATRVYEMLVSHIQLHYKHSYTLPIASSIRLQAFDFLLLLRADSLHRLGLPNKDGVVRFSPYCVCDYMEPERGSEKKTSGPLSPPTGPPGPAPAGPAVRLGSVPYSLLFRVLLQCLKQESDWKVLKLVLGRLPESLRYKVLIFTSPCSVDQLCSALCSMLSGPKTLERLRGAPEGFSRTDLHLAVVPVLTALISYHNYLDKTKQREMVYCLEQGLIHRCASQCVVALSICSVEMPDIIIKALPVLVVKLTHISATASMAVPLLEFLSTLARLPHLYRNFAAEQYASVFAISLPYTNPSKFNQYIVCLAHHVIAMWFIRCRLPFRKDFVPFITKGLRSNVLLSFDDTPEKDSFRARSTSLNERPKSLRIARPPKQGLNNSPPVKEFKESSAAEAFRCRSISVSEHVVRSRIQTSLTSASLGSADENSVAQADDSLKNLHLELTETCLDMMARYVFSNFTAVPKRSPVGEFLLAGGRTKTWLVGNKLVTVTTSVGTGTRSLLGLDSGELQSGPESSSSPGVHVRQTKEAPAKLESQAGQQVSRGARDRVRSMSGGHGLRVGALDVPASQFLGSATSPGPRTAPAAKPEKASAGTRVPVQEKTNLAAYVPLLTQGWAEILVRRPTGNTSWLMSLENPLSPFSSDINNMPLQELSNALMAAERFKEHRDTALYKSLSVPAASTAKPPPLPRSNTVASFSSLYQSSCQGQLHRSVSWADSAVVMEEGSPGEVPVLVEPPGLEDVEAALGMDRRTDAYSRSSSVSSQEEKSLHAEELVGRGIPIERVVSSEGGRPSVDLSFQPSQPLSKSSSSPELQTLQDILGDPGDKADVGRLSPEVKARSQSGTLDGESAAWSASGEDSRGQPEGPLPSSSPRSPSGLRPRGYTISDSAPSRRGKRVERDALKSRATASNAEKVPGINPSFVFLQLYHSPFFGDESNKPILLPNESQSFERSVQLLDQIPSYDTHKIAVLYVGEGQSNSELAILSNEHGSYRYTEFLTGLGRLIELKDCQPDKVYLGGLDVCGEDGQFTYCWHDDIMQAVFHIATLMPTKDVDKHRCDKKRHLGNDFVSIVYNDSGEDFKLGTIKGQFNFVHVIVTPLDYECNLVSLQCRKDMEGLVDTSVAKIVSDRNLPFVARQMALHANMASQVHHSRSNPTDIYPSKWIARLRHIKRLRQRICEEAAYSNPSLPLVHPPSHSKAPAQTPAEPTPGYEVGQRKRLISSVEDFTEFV
UniProt P36406: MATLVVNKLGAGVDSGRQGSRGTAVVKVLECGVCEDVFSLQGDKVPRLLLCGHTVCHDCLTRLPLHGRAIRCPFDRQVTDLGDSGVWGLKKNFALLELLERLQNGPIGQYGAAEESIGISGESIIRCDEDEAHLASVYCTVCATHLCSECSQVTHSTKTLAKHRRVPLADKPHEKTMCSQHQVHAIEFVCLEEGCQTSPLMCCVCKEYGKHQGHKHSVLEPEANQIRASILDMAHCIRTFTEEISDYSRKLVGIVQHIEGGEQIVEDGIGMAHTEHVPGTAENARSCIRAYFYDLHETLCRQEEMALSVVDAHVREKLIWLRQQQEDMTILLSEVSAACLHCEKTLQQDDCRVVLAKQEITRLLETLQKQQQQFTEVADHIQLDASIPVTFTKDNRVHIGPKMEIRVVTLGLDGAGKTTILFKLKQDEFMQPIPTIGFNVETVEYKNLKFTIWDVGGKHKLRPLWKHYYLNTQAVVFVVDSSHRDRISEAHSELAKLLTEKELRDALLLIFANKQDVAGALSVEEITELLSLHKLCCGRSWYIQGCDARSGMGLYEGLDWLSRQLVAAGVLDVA
UniProt Q86TN4: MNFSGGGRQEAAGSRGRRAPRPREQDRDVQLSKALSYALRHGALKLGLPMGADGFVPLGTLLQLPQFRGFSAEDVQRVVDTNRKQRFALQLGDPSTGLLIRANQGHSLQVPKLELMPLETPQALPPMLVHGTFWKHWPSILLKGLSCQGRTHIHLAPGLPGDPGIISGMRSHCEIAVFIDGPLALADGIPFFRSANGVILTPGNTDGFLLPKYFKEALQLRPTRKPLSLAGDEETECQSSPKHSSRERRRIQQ
UniProt Q15025: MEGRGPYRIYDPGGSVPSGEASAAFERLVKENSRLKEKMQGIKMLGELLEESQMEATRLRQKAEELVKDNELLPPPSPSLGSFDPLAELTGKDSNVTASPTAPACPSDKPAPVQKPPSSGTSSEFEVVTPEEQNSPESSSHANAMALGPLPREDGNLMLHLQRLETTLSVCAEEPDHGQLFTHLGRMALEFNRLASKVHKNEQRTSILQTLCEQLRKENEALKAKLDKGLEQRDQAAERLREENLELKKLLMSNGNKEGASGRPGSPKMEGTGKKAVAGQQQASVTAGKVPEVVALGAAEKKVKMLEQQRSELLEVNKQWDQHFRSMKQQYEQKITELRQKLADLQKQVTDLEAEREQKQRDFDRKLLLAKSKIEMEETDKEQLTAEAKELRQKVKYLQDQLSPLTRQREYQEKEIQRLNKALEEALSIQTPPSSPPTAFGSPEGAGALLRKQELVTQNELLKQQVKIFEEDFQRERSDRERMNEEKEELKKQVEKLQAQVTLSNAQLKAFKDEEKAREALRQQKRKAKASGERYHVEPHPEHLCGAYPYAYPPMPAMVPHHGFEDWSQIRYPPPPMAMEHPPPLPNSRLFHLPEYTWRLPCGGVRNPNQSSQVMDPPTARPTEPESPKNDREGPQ
UniProt Q9H4I3: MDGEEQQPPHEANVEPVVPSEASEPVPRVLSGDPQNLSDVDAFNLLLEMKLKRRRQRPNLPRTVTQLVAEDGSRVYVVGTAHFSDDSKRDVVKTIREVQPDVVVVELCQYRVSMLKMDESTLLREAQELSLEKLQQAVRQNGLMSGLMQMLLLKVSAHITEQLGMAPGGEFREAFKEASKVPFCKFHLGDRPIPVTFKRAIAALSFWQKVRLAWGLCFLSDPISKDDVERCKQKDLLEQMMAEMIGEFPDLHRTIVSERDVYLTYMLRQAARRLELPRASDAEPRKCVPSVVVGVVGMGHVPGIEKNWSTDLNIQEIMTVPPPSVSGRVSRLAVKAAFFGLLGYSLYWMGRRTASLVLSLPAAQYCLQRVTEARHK

How the values were obtained:
Experiment in all cases: log2 fold change, soluble protein after heating vs DMSO (PISA); higher = thermal stabilisation; K562 cells, 10 uM, 30 min; active = over 0.2 and 3.5 SD of the protein, either way, in both replicates (recomputed)
[1] = compound: CC1=C(C=C(C=C1)NC(=O)C2=CC(=CC=C2)C(C)(C)C#N)NC3=CC4=C(C=C3)N=CN(C4=O)C
Summary of the method: (§1)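 K562 cells at 2×10^6 cells/mL were given 10 μM compound for 30 min. Aliquots then went through 3 min of heating across 48°C-58°C, were pooled, and were extracted in PBS with 0.5% NP-40 at 4°C, and the supernatant after 21,000xg for 90 min was quantified by TMTpro 16plex LC-MS/MS with channel sums equalised. Thermal stability relative to control samples, from duplicates, is given as log2 fold change.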

[2] = compound: CC1=C(C=C(C=C1)NC(=O)C2=CC(=CC=C2)N(C)C)NC(=O)C3=CC=C(C=C3)O
Summary of the method: as §1

[3] = compound: CC1=CC=C(C=C1)SC2=C3C=C(SC3=CN=C2)C(=O)N
Summary of the method: as §1

[4] = compound: CC1=NC(=CC=C1)C2=C(N=C(N2)C(C)(C)C)C3=CC4=NC=CN=C4C=C3
Summary of the method: as §1

Nexturastat A = compound: CCCCN(Cc1ccc(C(=O)NO)cc1)C(=O)Nc1ccccc1 [Nexturastat A]
Summary of the method: as §1

vemurafenib = compound: CCCS(=O)(=O)Nc1ccc(F)c(C(=O)c2c[nH]c3ncc(-c4ccc(Cl)cc4)cc23)c1F [vemurafenib]
Summary of the method: as §1

[5] = compound: CCCS(=O)(=O)Nc1ccc(F)c(C(=O)c2c[nH]c3ncc(Cl)cc23)c1F
Summary of the method: as §1

[6] = compound: CCCc1cc(C)[nH]c(=O)c1CNC(=O)c1cc(-c2ccnc(N3CCN(C)CC3)c2)cc2c1cnn2C(C)C
Summary of the method: as §1

givinostat = compound: CCN(CC)Cc1ccc2cc(COC(=O)Nc3ccc(C(=O)NO)cc3)ccc2c1 [givinostat]
Summary of the method: as §1

barasertib = compound: CCN(CCCOc1ccc2c(Nc3cc(CC(=O)Nc4cccc(F)c4)[nH]n3)ncnc2c1)CCOP(=O)(O)O [barasertib]
Summary of the method: as §1

[7] = compound: CC[C@@H]1C(=O)N(C)c2cnc(Nc3ccc(C(=O)NC4CCN(C)CC4)cc3OC)nc2N1C1CCCC1
Summary of the method: as §1

volasertib = compound: CC[C@@H]1C(=O)N(C)c2cnc(Nc3ccc(C(=O)N[C@H]4CC[C@H](N5CCN(CC6CC6)CC5)CC4)cc3OC)nc2N1C(C)C [volasertib]
Summary of the method: as §1

[8] = compound: CC[C@H](C)N1C=C(C2=C(C=C(C=C21)C3=CN=C(C=C3)N4CCNCC4)C(=O)NCC5=C(C=C(NC5=O)C)C)C
Summary of the method: as §1

epoxomicin = compound: CC[C@H](C)[C@@H](C(=O)N[C@@H]([C@@H](C)O)C(=O)N[C@@H](CC(C)C)C(=O)[C@]1(CO1)C)NC(=O)[C@H]([C@@H](C)CC)N(C)C(=O)C [epoxomicin]
Summary of the method: as §1

[9] = compound: CCn1cc(-c2ccnc3[nH]c(-c4cccc(CN(C)C)c4)cc23)c(-c2ccc(NC(=O)N(C)C)cc2)n1
Summary of the method: as §1

[10] = compound: CN(C)CC(=O)Nc1ccc2[nH]c(=O)c3ccccc3c2c1
Summary of the method: as §1

[11] = compound: CN1C2=C(C3=C1C(=O)N(N=C3)CC4=CC(=CC=C4)N)SC(=C2)S(=O)C
Summary of the method: as §1

[12] = compound: CN1CCC(CNc2ccc3ncc(-c4cccc(OC(F)(F)F)c4)n3n2)CC1
Summary of the method: as §1

[13] = compound: CCn1c(C(=O)N(C2CC2)C2CC2)cc2c3c(ncn3C)c(Nc3cc(C)n(C)n3)nc21
Summary of the method: as §1

rosiglitazone = compound: CN(CCOC1=CC=C(C=C1)C[C@H]2C(=O)NC(=O)S2)C3=CC=CC=N3 (racemic) [rosiglitazone]
Summary of the method: as §1

Measured: log2 fold change

TRIP10 isoform 2 (UniProt Q15642)
inactive: [1] -0.068 | [2] -0.04 | [3] 0.019 | [4] 0.046 | Nexturastat A 0.12 | vemurafenib 0.026 | [5] 0.177 | [6] 0.004 | givinostat 0.01 | barasertib 0.011 | [7] -0.033 | volasertib -0.276 | [8] -0.018 | epoxomicin -0.285 | [9] -0.101 | [10] -0.18 | [11] 0.045 | [12] -0.075

TRPC4AP (UniProt Q8TEL6)
inactive: [1] 0.115 | [2] -0.115 | [3] -0.013 | [4] -0.047 | Nexturastat A 0.22 | vemurafenib -0.004 | [5] 0 | [6] 0.043 | givinostat 0.12 | volasertib -0.243 | [8] 0.014 | epoxomicin 0.234 | [13] -0.017 | [9] 0.041 | [10] -0.08 | [11] -0.062 | [12] -0.097

TPK1 (UniProt Q9H3S4)
inactive: [1] -0.048 | [2] 0.143 | [3] -0.03 | [4] -0.012 | Nexturastat A -0.07 | vemurafenib -0.154 | [5] -0.058 | [6] -0.013 | givinostat -0.488 | barasertib -0.099 | volasertib 0.014 | epoxomicin 0.049 | [13] 0.236 | [9] -0.073 | [10] 0.053 | rosiglitazone 0.04 | [11] -0.123 | [12] -0.019

TNRC6B (UniProt Q9UPQ9)
inactive: [1] -0.509 | [3] -0.059 | [4] -0.112 | Nexturastat A 0.118 | [5] -0.02 | givinostat -0.055 | barasertib -0.143 | volasertib 0.016 | epoxomicin 0.012 | [13] -0.052 | [9] 0.005 | rosiglitazone -0.157 | [11] 0.201 | [12] 0.097

TRAM1 (UniProt Q15629)
inactive: [1] 0.024 | [2] -0.063 | [3] -0.006 | [4] 0.048 | Nexturastat A 0.005 | vemurafenib 0.027 | [5] 0.02 | [6] -0.101 | givinostat 0.028 | barasertib 0.015 | [7] -0.216 | volasertib -0.161 | [8] 0.031 | epoxomicin 0.008 | [9] 0.066 | [10] 0.062 | [11] -0.001
active: [12] -0.759

TRAF7 (UniProt Q6Q0C0)
inactive: [1] 0.038 | [3] 0.052 | [4] -0.194 | Nexturastat A 0.063 | vemurafenib -0.088 | [5] 0.066 | [6] 0.104 | givinostat 0.016 | barasertib 0.153 | volasertib -0.034 | epoxomicin 0.148 | [13] -0.059 | [10] -0.056 | rosiglitazone -0.009

TOM1 isoform 2 (UniProt O60784)
inactive: [1] 0.17 | [2] 0.026 | [3] 0.02 | [4] 0.051 | Nexturastat A -0.028 | vemurafenib 0.17 | [5] 0.041 | [6] 0 | givinostat 0.013 | barasertib -0.01 | [7] -0.056 | volasertib -0.196 | [8] 0.037 | epoxomicin -0.035 | [9] -0.082 | [10] 0.026 | [11] 0.006 | [12] -0.274

TOE1 (UniProt Q96GM8)
inactive: [1] 0.099 | [2] 0.056 | [3] -0.012 | [4] -0.109 | Nexturastat A 0.078 | vemurafenib -0.016 | [5] 0.048 | [6] 0.059 | givinostat -0.055 | barasertib -0.063 | [7] 0.067 | volasertib 0.154 | [8] -0.023 | epoxomicin -0.148 | [9] 0.035 | [10] -0.043 | [11] 0.107
active: [12] 0.35

TRIM38 (UniProt O00635)
inactive: [1] -0.248 | [3] -0.072 | [4] -0.286 | Nexturastat A 0.037 | vemurafenib -0.063 | [5] -0.233 | [6] 0.019 | givinostat -0.125 | barasertib 0.052 | volasertib 0.114 | [8] -0.01 | epoxomicin -0.008 | [13] -0.142 | [9] -0.055 | [10] -0.045 | rosiglitazone -0.019 | [11] 0.006 | [12] -0.193

TRMT61A (UniProt Q96FX7)
inactive: [1] 0 | [2] 0.056 | [3] -0.013 | [4] -0.083 | Nexturastat A 0.204 | vemurafenib -0.119 | [5] -0.009 | [6] 0.114 | givinostat 0.038 | barasertib -0.091 | [7] 0.044 | volasertib 0.161 | [8] 0.022 | epoxomicin -0.061 | [9] 0.043 | [10] -0.098 | [11] 0.099 | [12] -0.001

TRAM2 (UniProt Q15035)
inactive: [1] 0.122 | [3] 0.315 | vemurafenib -0.076 | [5] 0.225 | givinostat 0.155 | barasertib -0.024 | [7] -0.243 | volasertib -0.27 | [13] -0.025 | [10] 0.181 | rosiglitazone 0.16

TRIQK (UniProt Q629K1)
inactive: [1] -0.022 | [2] -0.007 | [4] -0.173 | Nexturastat A -0.028 | [6] 0.014 | barasertib -0.041 | epoxomicin -0.02 | [11] -0.04

TRIM44 (UniProt Q96DX7)
inactive: [1] 0.059 | [2] -0.055 | [3] 0.06 | [4] 0.015 | vemurafenib -0.005 | [5] 0.042 | [6] 0 | givinostat -0.026 | barasertib -0.035 | [7] 0.003 | volasertib -0.028 | [8] -0.024 | [9] 0.005 | [10] -0.004 | [11] -0.069 | [12] 0.041

TPCN1 isoform 3 (UniProt Q9ULQ1)
inactive: [1] 0.179 | [2] 0.053 | [3] -0.113 | [4] 0.063 | Nexturastat A 0.004 | vemurafenib -0.097 | [5] 0.026 | [6] -0.265 | givinostat 0.002 | barasertib 0.061 | volasertib -0.045 | [8] -0.076 | epoxomicin 0.163 | [13] 0.059 | [9] 0.23 | [10] -0.114 | rosiglitazone -0.003 | [11] 0.039 | [12] -0.19

TPR (UniProt P12270)
active: [12] 0.297
inactive: [1] -0.001 | [2] 0.023 | [3] -0.069 | [4] -0.047 | Nexturastat A -0.048 | vemurafenib 0.031 | [5] 0.012 | [6] 0.003 | givinostat -0.08 | barasertib 0 | [7] 0.095 | volasertib -0.034 | [8] -0.018 | epoxomicin 0 | [9] 0.067 | [10] -0.03 | [11] -0.005

TRIM56 (UniProt Q9BRZ2)
inactive: [1] -0.04 | [2] -0.103 | [3] -0.163 | [4] -0.136 | Nexturastat A 0.054 | [5] -0.06 | [6] 0.009 | givinostat -0.005 | barasertib -0.163 | [7] 0.2 | volasertib 0.146 | [8] -0.046 | epoxomicin -0.113 | [13] 0.034 | [9] 0.07 | rosiglitazone 0.021 | [11] 0.243 | [12] 0.054

TSC2 (UniProt P49815)
inactive: [1] -0.09 | [2] 0.004 | [3] -0.076 | [4] -0.139 | Nexturastat A 0.173 | [5] 0.098 | [6] -0.036 | givinostat -0.043 | barasertib -0.015 | [7] -0.062 | volasertib -0.23 | epoxomicin -0.01 | [9] 0.016 | [12] -0.041

TRIM23 (UniProt P36406)
inactive: [1] -0.025 | [2] -0.008 | [4] 0.036 | vemurafenib -0.022 | [6] 0.055 | givinostat 0.027 | barasertib 0.021 | [7] 0.013 | [8] 0.049 | [9] -0.089 | [10] 0.025 | [11] -0.116 | [12] -0.228

Reprinted at random: 2 records from the list
TSC2 (UniProt P49815)
inactive: [1] -0.09 | [2] 0.004 | [3] -0.076 | [4] -0.139 | Nexturastat A 0.173 | [5] 0.098 | [6] -0.036 | givinostat -0.043 | barasertib -0.015 | [7] -0.062 | volasertib -0.23 | epoxomicin -0.01 | [9] 0.016 | [12] -0.041

TRIM23 (UniProt P36406)
inactive: [1] -0.025 | [2] -0.008 | [4] 0.036 | vemurafenib -0.022 | [6] 0.055 | givinostat 0.027 | barasertib 0.021 | [7] 0.013 | [8] 0.049 | [9] -0.089 | [10] 0.025 | [11] -0.116 | [12] -0.228

(continued)

TRPT1 isoform 4 (UniProt Q86TN4)
active: [1] -1.08
inactive: [2] 0.136 | [4] -0.008 | [6] 0.029 | givinostat 0.179 | [7] 0.084

TNIP1 (UniProt Q15025)
inactive: [1] -0.083 | [2] -0.04 | [3] -0.115 | Nexturastat A -0.081 | [5] 0.12 | [6] 0.213 | givinostat 0.193 | barasertib 0.051 | [7] -0.018 | volasertib -0.237 | epoxomicin 0.038 | [13] -0.104 | rosiglitazone 0.006

TRAPPC1 (UniProt Q9Y5R8)
inactive: [1] -0.078 | [2] -0.018 | [3] 0.009 | [4] -0.09 | vemurafenib -0.054 | [5] -0.071 | [6] -0.002 | givinostat 0.004 | barasertib 0.125 | [7] 0.027 | volasertib -0.099 | [8] -0.003 | [13] -0.007 | [9] -0.162 | [10] 0.056 | rosiglitazone -0.061 | [11] -0.096 | [12] 0.031

TRABD (UniProt Q9H4I3)
inactive: [1] 0.014 | [2] -0.017 | [3] -0.005 | [4] -0.133 | Nexturastat A -0.03 | vemurafenib 0.125 | [5] -0.06 | [6] 0.147 | givinostat -0.041 | barasertib 0.031 | [7] 0.245 | volasertib 0.215 | [8] 0 | epoxomicin -0.004 | [9] -0.108 | [10] 0.029 | [12] 0.228
